In article PMC6952796:
No constants are given. Whether binding was seen depends on the method and setting. Some entries that bind do so weakly or less than the wild type.

Sequences of proteins named here, by UniProt entry; tags and fusion partners are left off.
UniProt P00441: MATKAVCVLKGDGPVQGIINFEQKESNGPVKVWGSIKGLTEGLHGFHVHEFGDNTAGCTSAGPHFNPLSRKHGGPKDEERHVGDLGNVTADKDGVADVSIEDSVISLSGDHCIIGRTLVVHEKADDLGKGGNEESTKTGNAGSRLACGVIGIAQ
UniProt P07237: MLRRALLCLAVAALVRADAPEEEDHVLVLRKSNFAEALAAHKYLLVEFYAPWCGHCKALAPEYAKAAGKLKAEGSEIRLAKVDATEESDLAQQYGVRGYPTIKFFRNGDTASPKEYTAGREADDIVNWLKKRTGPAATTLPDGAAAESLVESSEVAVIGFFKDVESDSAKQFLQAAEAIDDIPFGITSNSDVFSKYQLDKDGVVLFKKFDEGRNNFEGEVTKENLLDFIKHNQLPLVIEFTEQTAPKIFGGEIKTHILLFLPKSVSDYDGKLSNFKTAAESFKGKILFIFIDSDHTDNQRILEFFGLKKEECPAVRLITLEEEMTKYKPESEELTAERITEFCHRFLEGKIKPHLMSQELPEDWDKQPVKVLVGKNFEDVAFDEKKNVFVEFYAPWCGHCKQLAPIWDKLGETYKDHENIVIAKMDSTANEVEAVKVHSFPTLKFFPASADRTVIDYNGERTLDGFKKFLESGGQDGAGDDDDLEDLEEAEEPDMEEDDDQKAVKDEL

Molecular target: superoxide dismutase 1 wild type (SOD1WT), full length, in pGBKT7 (human) (UniProt P00441)
Assay: two-hybrid; SOD1WT or SOD1G93A in pGBKT7, PDI in pGADT7, yeast Y2HGold; growth on media with X-alpha-Gal without leucine, tryptophan and histidine

**Q.** Which binding does the source give for “protein disulphide isomerase (PDI), full length, in pGADT7 (from UniProt P07237 1-508)” here?
**A.** binds
